Assay results published in PMC7293280.

By UniProt entry, the sequences of proteins in these tests, tags left out.
UniProt Q02248: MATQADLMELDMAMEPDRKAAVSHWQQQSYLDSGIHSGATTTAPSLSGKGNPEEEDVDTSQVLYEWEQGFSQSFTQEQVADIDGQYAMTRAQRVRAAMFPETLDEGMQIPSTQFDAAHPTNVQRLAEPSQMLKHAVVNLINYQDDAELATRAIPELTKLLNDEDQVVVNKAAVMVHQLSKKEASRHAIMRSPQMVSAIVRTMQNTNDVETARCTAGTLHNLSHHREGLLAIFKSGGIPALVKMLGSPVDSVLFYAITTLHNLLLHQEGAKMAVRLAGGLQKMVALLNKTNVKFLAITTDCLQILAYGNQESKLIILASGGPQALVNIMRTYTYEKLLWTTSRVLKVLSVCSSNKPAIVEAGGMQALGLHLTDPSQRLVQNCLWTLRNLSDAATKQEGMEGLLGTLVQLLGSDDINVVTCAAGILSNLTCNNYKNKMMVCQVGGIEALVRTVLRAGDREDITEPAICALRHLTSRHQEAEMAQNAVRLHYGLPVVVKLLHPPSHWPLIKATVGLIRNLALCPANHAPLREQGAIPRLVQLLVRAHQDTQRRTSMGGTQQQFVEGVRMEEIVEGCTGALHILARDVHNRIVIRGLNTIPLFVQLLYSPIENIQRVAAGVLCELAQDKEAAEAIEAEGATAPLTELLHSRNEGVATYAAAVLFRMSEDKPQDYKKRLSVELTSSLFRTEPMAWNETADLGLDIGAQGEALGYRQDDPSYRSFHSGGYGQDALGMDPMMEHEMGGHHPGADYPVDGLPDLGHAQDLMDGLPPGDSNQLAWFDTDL

Target: T1, ADNP (Activity Dependent Neuroprotective Protein), endogenous (mouse (endogenous in mouse R1 ESCs)) (UniProt Q9Z103)
T1 sequence: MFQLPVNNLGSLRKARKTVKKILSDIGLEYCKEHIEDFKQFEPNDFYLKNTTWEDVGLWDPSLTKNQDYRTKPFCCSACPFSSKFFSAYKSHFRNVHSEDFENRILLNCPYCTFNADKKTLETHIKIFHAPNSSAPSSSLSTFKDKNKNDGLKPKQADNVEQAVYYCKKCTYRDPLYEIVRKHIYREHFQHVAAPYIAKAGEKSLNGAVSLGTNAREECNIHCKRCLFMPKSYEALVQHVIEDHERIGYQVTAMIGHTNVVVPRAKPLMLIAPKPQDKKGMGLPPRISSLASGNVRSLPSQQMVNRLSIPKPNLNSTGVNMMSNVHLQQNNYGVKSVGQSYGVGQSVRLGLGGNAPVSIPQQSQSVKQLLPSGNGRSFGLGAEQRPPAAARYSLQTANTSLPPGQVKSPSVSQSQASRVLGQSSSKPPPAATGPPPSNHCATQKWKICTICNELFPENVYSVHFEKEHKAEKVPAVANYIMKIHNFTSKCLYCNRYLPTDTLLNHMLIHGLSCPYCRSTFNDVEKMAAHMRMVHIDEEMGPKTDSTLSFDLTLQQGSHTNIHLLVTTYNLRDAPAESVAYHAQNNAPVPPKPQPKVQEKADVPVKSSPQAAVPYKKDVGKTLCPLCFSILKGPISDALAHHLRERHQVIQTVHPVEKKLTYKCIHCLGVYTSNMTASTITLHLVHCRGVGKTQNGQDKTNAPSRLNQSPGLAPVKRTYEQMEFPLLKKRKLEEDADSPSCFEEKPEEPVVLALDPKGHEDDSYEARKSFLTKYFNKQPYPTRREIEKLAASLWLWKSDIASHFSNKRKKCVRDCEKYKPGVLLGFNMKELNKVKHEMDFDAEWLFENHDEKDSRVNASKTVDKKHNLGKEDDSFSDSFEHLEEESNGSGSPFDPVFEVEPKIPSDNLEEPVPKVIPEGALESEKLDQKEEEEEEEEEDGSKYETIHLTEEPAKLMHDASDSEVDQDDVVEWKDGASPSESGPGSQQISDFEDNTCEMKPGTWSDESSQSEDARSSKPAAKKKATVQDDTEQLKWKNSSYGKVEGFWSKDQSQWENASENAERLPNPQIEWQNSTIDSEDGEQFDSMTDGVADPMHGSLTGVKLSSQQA
Assay: affinity purification with mass spectrometry; IP with ADNP antibody or IgG, whole lanes of an SDS-PAGE gel analysed by mass spectrometry; cells not given

β-catenin, endogenous (from UniProt Q02248 1-781)
binding: binds

These are yes or no findings as the source states them, for the method shown. In cells and extracts the contact can be indirect. Here binding means that the protein was enriched with, or labelled near, the bait; the list need not be complete.
